Some entries share one result that the patent states for a list of compounds. Starred links: 1 amine or outer side, 2 acyl side, 3 side chain; linkers in the order of their positions; H or OH if unused. Positions of bridges follow the written chain, without caps; N, C: chain ends. Non-standard residues stand in square brackets, D forms with d. Residues, ends and D or L forms follow the SMILES beside them. ξ: configuration not given here. *: point of attachment. dArg(ω-(2S)-2,3-diOHpropyl) = N=C(NCCC[C@@H](N)C(=O)O)NC[C@H](O)CO; Bip(4'-NH) = O=C([C@H](Cc1ccc(-c2ccc(N[*:3])cc2)cc1)N[*:1])[*:2]; Indazole3carbonyl(1-CH2COOH) = O=C(O)Cn1nc(C(=O)*)c2ccccc21; Bip(4'-COOH) = N[C@@H](Cc1ccc(-c2ccc(C(=O)O)cc2)cc1)C(=O)O; X23 = N=C(N)Nc1ccc(CNC(=N)NCCC[C@@H](N[*:1])C(=O)[*:2])cc1; Indole3carbonyl(1-CH2COOH) = O=C(O)Cn1cc(C(=O)*)c2ccccc21; X80 = N=C(NCCC[C@@H](N[*:1])C(=O)[*:2])NCc1ccc2c(c1)OCO2; X30 = N#Cc1ccc(CCNC(=N)NCCC[C@@H](N[*:1])C(=O)[*:2])cc1; X58 = N=C(NCCC[C@@H](N[*:1])C(=O)[*:2])NCCc1cccc(N)c1; X63 = N=C(NCCC[C@@H](N[*:1])C(=O)[*:2])NCCc1cccc(O)c1; X6 = N=C(NCCCCC(N)=O)NCCC[C@@H](N[*:1])C(=O)[*:2]; dArg(ω-Bn) = N=C(NCCC[C@@H](N)C(=O)O)NCc1ccccc1; Ala(morpholin-4-yl) = N[C@@H](CN1CCOCC1)C(=O)O; Bip = N[C@@H](Cc1ccc(-c2ccccc2)cc1)C(=O)O; 2Pal = N[C@@H](Cc1ccccn1)C(=O)O; Cha = N[C@@H](CC1CCCCC1)C(=O)O; ξP = O=C(O)C1CCCN1; Sar = CNCC(=O)O
Target: TNFα (Homo sapiens, UniProt P01375)
Test: TNF-Induced HEK-Blue Assay
Assay type: cell-based
Details: read-out: IC50 values measured in the TNF induced HEK-Blue assay; summary statement for all examples

Amino acid sequences for entries named in this document (tags omitted). Residues count along the entry.
UniProt P01375, 77-233 limits assumed: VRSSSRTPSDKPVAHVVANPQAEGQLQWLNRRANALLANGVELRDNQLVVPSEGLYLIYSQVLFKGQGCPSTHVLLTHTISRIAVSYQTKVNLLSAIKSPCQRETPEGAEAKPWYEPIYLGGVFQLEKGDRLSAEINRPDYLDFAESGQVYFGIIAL

CC(C)C[C@@H]1NC(=O)[C@H](Cc2cnc[nH]2)NC(=O)[C@H](C(C)C)NC(=O)[C@@H]2CCCN2C(=O)[C@H](C(C)C)NC(=O)[C@@H](CCCNC(=N)NCc2ccccc2)NC(=O)[C@H](CC(=O)O)NC(=O)[C@H](Cc2ccccn2)NC(=O)CN(C)C(=O)[C@H](Cc2ccc(-c3ccc(NC(=O)c4cn(CC(=O)O)c5ccccc45)cc3)cc2)NC(=O)[C@H](Cc2ccc(-c3ccccc3)cc2)NC(=O)[C@H](CN2CCOCC2)NC(=O)CSC[C@@H](C(=O)NCC(N)=O)NC1=O [Example 629] ({CH2CO}-[Ala(morpholin-4-yl)][Bip][Bip(4'-NH)](Indole3carbonyl(1-CH2COOH))[Sar][2Pal]D[dArg(ω-Bn)]VPVHLCG-NH2; thioether N-13)
IC50: ≤ 25 µM

CC(C)C[C@@H]1NC(=O)[C@H](Cc2ccc(O)cc2)NC(=O)[C@H](C(C)C)NC(=O)[C@@H]2CCCN2C(=O)[C@H](C(C)C)NC(=O)[C@@H](CCCNC(=N)NC[C@H](O)CO)NC(=O)[C@H](CC(=O)O)NC(=O)[C@@H]2CCCN2C(=O)CN(C)C(=O)[C@H](Cc2ccc(-c3ccc(NC(=O)c4nn(CC(=O)O)c5ccccc45)cc3)cc2)NC(=O)[C@H](Cc2ccc(-c3ccc(C(=O)O)cc3)cc2)NC(=O)[C@H](CC2CCCCC2)NC(=O)CSC[C@@H](C(=O)NCC(N)=O)NC1=O [Example 545] ({CH2CO}-[Cha][Bip(4'-COOH)][Bip(4'-NH)](Indazole3carbonyl(1-CH2COOH))[Sar]PD[dArg(ω-(2S)-2,3-diOHpropyl)]VPVYLCG-NH2; thioether N-13)
IC50: ≤ 25 µM

CC(C)C[C@@H]1NC(=O)[C@H](CCCNC(=N)N)NC(=O)[C@H](C(C)C)NC(=O)C2CCCN2C(=O)[C@H](C(C)C)NC(=O)[C@@H](CCCNC(=N)NCCc2cccc(N)c2)NC(=O)[C@H](CC(=O)O)NC(=O)[C@@H]2CCCN2C(=O)CN(C)C(=O)[C@H](Cc2ccc(-c3ccc(NC(=O)c4nn(CC(=O)O)c5ccccc45)cc3)cc2)NC(=O)[C@H](Cc2ccc(-c3ccccc3)cc2)NC(=O)[C@H](CN2CCOCC2)NC(=O)CSC[C@@H](C(=O)NCC(N)=O)NC1=O (stereo partly shown) [Example 405] ({CH2CO}-[Ala(morpholin-4-yl)][Bip][Bip(4'-NH)](Indazole3carbonyl(1-CH2COOH))[Sar]PD[X58]V[ξP]VRLCG-NH2; thioether N-13)
IC50: ≤ 25 µM

CC(C)C[C@@H]1NC(=O)[C@H](CCCNC(=N)N)NC(=O)[C@H](C(C)C)NC(=O)[C@@H]2CCCN2C(=O)[C@H](C(C)C)NC(=O)[C@@H](CCCNC(=N)NCCc2ccc(C#N)cc2)NC(=O)[C@H](CC(=O)O)NC(=O)[C@@H]2CCCN2C(=O)CN(C)C(=O)[C@H](Cc2ccc(-c3ccc(NC(=O)c4nn(CC(=O)O)c5ccccc45)cc3)cc2)NC(=O)[C@H](Cc2ccc(-c3ccccc3)cc2)NC(=O)[C@H](CN2CCOCC2)NC(=O)CSC[C@@H](C(=O)NCC(N)=O)NC1=O [Example 428] ({CH2CO}-[Ala(morpholin-4-yl)][Bip][Bip(4'-NH)](Indazole3carbonyl(1-CH2COOH))[Sar]PD[X30]VPVRLCG-NH2; thioether N-13)
IC50: ≤ 25 µM

CC(C)C[C@@H]1NC(=O)[C@H](CCCNC(=N)N)NC(=O)[C@H](C(C)C)NC(=O)[C@@H]2CCCN2C(=O)[C@H](C(C)C)NC(=O)[C@@H](CCCNC(=N)NCCc2cccc(O)c2)NC(=O)[C@H](CC(=O)O)NC(=O)[C@@H]2CCCN2C(=O)CN(C)C(=O)[C@H](Cc2ccc(-c3ccc(NC(=O)c4nn(CC(=O)O)c5ccccc45)cc3)cc2)NC(=O)[C@H](Cc2ccc(-c3ccccc3)cc2)NC(=O)[C@H](CN2CCOCC2)NC(=O)CSC[C@@H](C(=O)NCC(N)=O)NC1=O [Example 366] ({CH2CO}-[Ala(morpholin-4-yl)][Bip][Bip(4'-NH)](Indazole3carbonyl(1-CH2COOH))[Sar]PD[X63]VPVRLCG-NH2; thioether N-13)
IC50: ≤ 25 µM

CC(C)C[C@@H]1NC(=O)[C@H](CCCNC(=N)N)NC(=O)[C@H](C(C)C)NC(=O)[C@@H]2CCCN2C(=O)[C@H](C(C)C)NC(=O)[C@@H](CCCNC(=N)NCc2ccc3c(c2)OCO3)NC(=O)[C@H](CC(=O)O)NC(=O)[C@@H]2CCCN2C(=O)CN(C)C(=O)[C@H](Cc2ccc(-c3ccc(NC(=O)c4nn(CC(=O)O)c5ccccc45)cc3)cc2)NC(=O)[C@H](Cc2ccc(-c3ccccc3)cc2)NC(=O)[C@H](CN2CCOCC2)NC(=O)CSC[C@@H](C(=O)NCC(N)=O)NC1=O [Example 509] ({CH2CO}-[Ala(morpholin-4-yl)][Bip][Bip(4'-NH)](Indazole3carbonyl(1-CH2COOH))[Sar]PD[X80]VPVRLCG-NH2; thioether N-13)
IC50: ≤ 25 µM

CC(C)C[C@@H]1NC(=O)[C@H](CCCNC(=N)N)NC(=O)[C@H](C(C)C)NC(=O)[C@@H]2CCCN2C(=O)[C@H](C(C)C)NC(=O)[C@@H](CCCNC(=N)NCCCCC(N)=O)NC(=O)[C@H](CC(=O)O)NC(=O)[C@@H]2CCCN2C(=O)CN(C)C(=O)[C@H](Cc2ccc(-c3ccc(NC(=O)c4nn(CC(=O)O)c5ccccc45)cc3)cc2)NC(=O)[C@H](Cc2ccc(-c3ccccc3)cc2)NC(=O)[C@H](CN2CCOCC2)NC(=O)CSC[C@@H](C(=O)NCC(N)=O)NC1=O [Example 391] ({CH2CO}-[Ala(morpholin-4-yl)][Bip][Bip(4'-NH)](Indazole3carbonyl(1-CH2COOH))[Sar]PD[X6]VPVRLCG-NH2; thioether N-13)
IC50: ≤ 25 µM

CC(C)C[C@@H]1NC(=O)[C@H](Cc2ccc(O)cc2)NC(=O)[C@H](C(C)C)NC(=O)[C@@H]2CCCN2C(=O)[C@H](C(C)C)NC(=O)[C@@H](CCCNC(=N)NCc2ccccc2)NC(=O)[C@H](CC(=O)O)NC(=O)[C@@H]2CCCN2C(=O)CN(C)C(=O)[C@H](Cc2ccc(-c3ccc(NC(=O)c4cn(CC(=O)O)c5ccccc45)cc3)cc2)NC(=O)[C@H](Cc2ccc(-c3ccccc3)cc2)NC(=O)[C@H](CN2CCOCC2)NC(=O)CSC[C@@H](C(=O)NCC(N)=O)NC1=O [Example 531] ({CH2CO}-[Ala(morpholin-4-yl)][Bip][Bip(4'-NH)](Indole3carbonyl(1-CH2COOH))[Sar]PD[dArg(ω-Bn)]VPVYLCG-NH2; thioether N-13)
IC50: ≤ 25 µM

CC(C)C[C@@H]1NC(=O)[C@H](CCCNC(=N)N)NC(=O)[C@H](C(C)C)NC(=O)[C@@H]2CCCN2C(=O)[C@H](C(C)C)NC(=O)[C@@H](CCCNC(=N)NCc2ccc(NC(=N)N)cc2)NC(=O)[C@H](CC(=O)O)NC(=O)[C@@H]2CCCN2C(=O)CN(C)C(=O)[C@H](Cc2ccc(-c3ccc(NC(=O)c4nn(CC(=O)O)c5ccccc45)cc3)cc2)NC(=O)[C@H](Cc2ccc(-c3ccccc3)cc2)NC(=O)[C@H](CN2CCOCC2)NC(=O)CSC[C@@H](C(=O)NCC(N)=O)NC1=O [Example 432] ({CH2CO}-[Ala(morpholin-4-yl)][Bip][Bip(4'-NH)](Indazole3carbonyl(1-CH2COOH))[Sar]PD[X23]VPVRLCG-NH2; thioether N-13)
IC50: ≤ 25 µM

CC[C@H](C)[C@@H]1NC(=O)[C@@H]2CCCN2C(=O)[C@H](C(C)C)NC(=O)[C@H](CCCNC(=N)N)NC(=O)[C@H](CC(=O)O)NC(=O)[C@@H]2CCCN2C(=O)CN(C)C(=O)[C@H](Cc2ccc(-c3ccccc3)cc2)NC(=O)[C@H](Cc2ccc(-c3ccccc3)cc2)NC(=O)[C@H](Cc2ccccc2)NC(=O)CSC[C@@H](C(=O)NCC(N)=O)NC(=O)[C@H](CC(C)C)NC(=O)[C@H](CCCNC(=N)N)NC1=O [Example 20] ({CH2CO}-F[Bip][Bip][Sar]PDRVPIRLCG-NH2; thioether N-13)
IC50: ≤ 25 µM

Reference: patent publication US20250145665A1, “MACROCYCLIC PEPTIDES USEFUL AS MODULATORS OF TNF ALPHA” (Bristol-Myers Squibb Company, priority 2023, published 2025)
